In the experiment the target is GST-RHOTEKIN RHO binding domain (RBD) (UniProt Q9BST9). Nature of the experiment: pull-down; lysates of HeLa cells expressing hs2dAb NR, RH12 or RH57 incubated with GST-RBD beads, 45 min 4 °C; blot anti-RHOA; only the target purified.

Protein sequences, listed by entry. Tags and fused reporters are not part of them. Lines headed by an entry give the natural chain unless they say otherwise; changes in a name come on top.
UniProt Q9BST9: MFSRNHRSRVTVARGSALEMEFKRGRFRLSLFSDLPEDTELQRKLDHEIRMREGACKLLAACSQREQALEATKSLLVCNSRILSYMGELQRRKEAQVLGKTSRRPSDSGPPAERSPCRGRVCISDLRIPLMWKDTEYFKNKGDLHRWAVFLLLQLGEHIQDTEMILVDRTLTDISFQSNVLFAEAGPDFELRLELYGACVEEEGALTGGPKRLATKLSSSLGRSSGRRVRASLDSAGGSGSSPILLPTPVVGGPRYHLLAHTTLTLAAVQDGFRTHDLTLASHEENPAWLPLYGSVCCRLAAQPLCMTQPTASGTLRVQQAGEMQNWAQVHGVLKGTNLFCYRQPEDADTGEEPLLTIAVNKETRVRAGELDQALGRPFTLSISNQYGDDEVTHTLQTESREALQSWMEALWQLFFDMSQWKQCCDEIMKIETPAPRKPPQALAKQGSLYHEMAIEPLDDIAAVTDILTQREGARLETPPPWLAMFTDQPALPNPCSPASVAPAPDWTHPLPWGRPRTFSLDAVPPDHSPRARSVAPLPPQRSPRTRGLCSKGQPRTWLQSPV
UniProt P61586: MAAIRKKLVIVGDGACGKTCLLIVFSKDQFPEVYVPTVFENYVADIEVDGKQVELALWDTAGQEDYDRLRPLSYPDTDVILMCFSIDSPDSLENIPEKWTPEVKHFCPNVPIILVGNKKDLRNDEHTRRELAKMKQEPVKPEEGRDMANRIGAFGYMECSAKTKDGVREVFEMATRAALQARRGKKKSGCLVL

The source of these data is publication PMC6640709, “Selection and Characterization of a Nanobody Biosensor of GTP-Bound RHO Activities” (Antibodies, 2019).

These are yes or no findings as the source states them, for the method shown. Binding seen in cells or lysates may run through a third protein. Binding can be weak; no strength is given.

In the case of “endogenous RHOA (from UniProt P61586 1-193)”, the binding entry is “binds”.
